Results taken from article PMC6071317 (European journal of medicinal chemistry, 2017).

Protein sequences, listed by entry. Tags and fused reporters are not part of them. Residues count along the entry.
UniProt P14867, 28-456: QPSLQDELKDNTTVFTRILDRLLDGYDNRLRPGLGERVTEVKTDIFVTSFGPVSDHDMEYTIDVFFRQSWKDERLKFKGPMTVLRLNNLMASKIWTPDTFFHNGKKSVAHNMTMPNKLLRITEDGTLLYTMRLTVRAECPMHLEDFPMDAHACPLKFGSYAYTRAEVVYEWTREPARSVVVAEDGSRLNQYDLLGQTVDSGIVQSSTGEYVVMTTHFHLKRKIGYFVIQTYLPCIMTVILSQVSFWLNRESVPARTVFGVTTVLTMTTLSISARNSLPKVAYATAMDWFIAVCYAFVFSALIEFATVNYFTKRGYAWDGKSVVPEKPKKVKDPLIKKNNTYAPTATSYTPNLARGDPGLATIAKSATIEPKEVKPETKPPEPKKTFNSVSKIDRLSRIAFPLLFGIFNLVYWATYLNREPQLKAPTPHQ
UniProt P28472, 26-473: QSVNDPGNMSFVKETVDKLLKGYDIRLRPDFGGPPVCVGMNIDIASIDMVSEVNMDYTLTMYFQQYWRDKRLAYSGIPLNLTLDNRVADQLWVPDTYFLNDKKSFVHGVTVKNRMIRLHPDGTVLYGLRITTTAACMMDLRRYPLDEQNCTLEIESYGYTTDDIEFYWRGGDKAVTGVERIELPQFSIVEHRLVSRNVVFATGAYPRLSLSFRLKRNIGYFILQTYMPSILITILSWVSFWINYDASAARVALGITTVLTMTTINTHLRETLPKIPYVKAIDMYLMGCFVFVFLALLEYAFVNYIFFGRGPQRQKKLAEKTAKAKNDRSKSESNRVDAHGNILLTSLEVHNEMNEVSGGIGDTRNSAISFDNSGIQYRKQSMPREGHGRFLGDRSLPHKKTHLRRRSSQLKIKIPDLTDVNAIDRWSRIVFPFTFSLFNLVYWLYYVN

Target: human α1β3γ2 GABAA receptors (Homo sapiens, UniProt P14867+P28472)
Test: Modulation of [3H]muscimol binding to GABAA receptor membranes from HEK293 cells
Details: 2 nM [3H]muscimol

Structure (SMILES): CC(=O)[C@H]1CC[C@H]2[C@@H]3CC[C@H]4C[C@H](O)CC[C@]4(C)[C@H]3C(=O)C[C@]12C [alphaxalone, Alphaxalone, reference compound]
- Efficacy of modulation of [3H]muscimol binding: 235 ± 2%
- Hill coefficient of enhancement of [3H]muscimol binding: 1.0 ± 0.1
